The target in this assay is Voltage-dependent L-type calcium channel subunit alpha-1C (Cavia porcellus, UniProt O35505). The assay is described as follows: Inhibition of Calcium channel in Cavia porcellus albino (guinea pig) ileocecal SMC assessed as inhibition of 80 mM KCl-induced contraction.

Chains of the proteins cited; added tags and fusions are not shown.
UniProt O35505, whole entry: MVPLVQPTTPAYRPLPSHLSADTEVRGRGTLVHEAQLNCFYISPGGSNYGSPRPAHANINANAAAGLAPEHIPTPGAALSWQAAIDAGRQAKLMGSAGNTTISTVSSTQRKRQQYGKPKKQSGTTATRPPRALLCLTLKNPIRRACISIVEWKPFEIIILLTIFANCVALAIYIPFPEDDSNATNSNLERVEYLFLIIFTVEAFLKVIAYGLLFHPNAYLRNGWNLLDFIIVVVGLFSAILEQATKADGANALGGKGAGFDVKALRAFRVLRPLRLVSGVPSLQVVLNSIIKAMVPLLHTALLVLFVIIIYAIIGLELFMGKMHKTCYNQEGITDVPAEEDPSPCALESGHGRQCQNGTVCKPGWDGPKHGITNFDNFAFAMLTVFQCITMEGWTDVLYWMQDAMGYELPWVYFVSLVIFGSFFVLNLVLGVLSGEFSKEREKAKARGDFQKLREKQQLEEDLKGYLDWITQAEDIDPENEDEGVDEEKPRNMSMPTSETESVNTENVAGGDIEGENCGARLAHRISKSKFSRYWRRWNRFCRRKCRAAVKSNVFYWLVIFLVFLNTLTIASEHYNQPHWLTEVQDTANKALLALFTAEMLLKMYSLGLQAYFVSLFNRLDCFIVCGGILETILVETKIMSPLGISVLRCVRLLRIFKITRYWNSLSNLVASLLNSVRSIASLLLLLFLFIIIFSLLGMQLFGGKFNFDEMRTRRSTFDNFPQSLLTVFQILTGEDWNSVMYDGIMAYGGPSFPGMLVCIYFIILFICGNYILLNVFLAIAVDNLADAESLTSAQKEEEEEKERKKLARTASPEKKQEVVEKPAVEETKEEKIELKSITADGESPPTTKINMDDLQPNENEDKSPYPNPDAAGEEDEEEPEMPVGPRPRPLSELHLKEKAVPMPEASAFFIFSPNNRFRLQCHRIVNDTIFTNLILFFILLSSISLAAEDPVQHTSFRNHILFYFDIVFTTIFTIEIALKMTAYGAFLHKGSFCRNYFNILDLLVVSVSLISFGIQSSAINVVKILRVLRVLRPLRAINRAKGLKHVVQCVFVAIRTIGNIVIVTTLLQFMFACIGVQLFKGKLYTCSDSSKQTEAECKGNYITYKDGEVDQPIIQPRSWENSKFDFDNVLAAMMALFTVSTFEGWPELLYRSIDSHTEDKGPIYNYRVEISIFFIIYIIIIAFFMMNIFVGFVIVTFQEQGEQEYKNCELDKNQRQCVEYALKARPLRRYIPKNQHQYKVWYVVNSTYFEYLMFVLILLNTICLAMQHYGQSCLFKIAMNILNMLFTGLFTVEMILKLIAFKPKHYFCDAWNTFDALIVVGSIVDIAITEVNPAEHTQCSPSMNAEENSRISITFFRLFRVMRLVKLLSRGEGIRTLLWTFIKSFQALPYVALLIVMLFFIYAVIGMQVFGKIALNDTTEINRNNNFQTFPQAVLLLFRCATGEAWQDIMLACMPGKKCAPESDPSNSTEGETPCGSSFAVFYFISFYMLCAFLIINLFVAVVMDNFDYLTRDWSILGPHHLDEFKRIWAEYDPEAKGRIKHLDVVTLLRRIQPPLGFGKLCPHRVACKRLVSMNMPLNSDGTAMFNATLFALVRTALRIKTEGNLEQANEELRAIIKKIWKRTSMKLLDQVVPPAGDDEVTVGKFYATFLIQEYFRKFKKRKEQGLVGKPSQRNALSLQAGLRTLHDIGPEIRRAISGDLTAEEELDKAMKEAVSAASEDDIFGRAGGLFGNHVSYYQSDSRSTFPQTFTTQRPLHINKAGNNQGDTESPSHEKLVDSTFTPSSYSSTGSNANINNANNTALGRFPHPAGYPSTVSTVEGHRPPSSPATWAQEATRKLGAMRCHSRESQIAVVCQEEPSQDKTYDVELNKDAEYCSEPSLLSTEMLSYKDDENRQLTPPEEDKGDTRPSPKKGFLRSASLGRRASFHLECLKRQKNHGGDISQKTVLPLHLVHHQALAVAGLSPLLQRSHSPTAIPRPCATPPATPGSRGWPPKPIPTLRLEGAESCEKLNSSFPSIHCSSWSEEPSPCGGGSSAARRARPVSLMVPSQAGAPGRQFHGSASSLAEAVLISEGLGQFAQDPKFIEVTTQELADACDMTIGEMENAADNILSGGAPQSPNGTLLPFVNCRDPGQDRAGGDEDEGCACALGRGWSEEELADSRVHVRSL

The IC50 is the concentration at which inhibition is half-maximal.

Take `COC(=O)C1=C(C)NC(C)=C(C(=O)OC)C1c1ccccc1[N+](=O)[O-]` [NIFEDIPINE]: the 50% inhibitory concentration (IC50) is 69 nM.

For the origin of these results see ChEMBL document CHEMBL3046466, “Synthesis and calcium channel antagonist activity of novel 1,4-dihydropyridine derivatives possessing 4-pyrone moieties” (Med Chem Res, 2012).
